Test results from the supplement of paper PMC12067093, “Discovery and optimisation of a covalent ligand for TRIM25 and its application to targeted protein ubiquitination” (Chemical Science, 2025).
Some of the results follow.

Compound: CC1Cc2ccccc2N1C(=O)C1CCCN(C1)C(=O)CCl (mixture of isomers) [TRIM25 ligand 11 (diastereomer mixture)]
Test: probe-labelled cysteine peptide fold change vs DMSO (competition) (log2 fold change); higher = less target engagement (more negative = stronger competition)
Settings: THP-1, incubation time: 4 h
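Further: competitive chemoproteomic profiling in live THP-1 cells with an iodoacetamide desthiobiotin (IA-DTB) probe, comparing probe-labelled peptide intensities in compound-treated cells against DMSO-treated controls.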

Target | probe-labelled cysteine peptide fold change (10 µM) | probe-labelled cysteine peptide fold change (50 µM)
RCHY1_Q96PM5_65_EVQCINCEK (UniProt Q96PM5) | 0.0321 | -0.0427
RASGRP2_Q7LDG7_512_MGFVHNFQESNSLRPVACR (UniProt Q7LDG7) | -0.214 | -0.0958
RCC1L_Q96I51_401_CGLSHFAALTNKGELFVWGK (UniProt Q96I51) | -0.273 | -0.19
RANBP2_P49792_3122_VIPDFVCQGGDITK (UniProt P49792) | 0.0475 | 0.0122
RBM5_P52756_766_CQGITAPIEAQVR (UniProt P52756) | -0.041 | -0.287
RC3H1_Q5TC82_1049_ELSMENQCSLDMK (UniProt Q5TC82) | -0.249 | -0.555
RB1_P06400_706_HLDQIMMCSMYGICK (UniProt P06400) | 0.206 | 0.476
RBM39_Q14498_303_GYGFITFSDSECAK (UniProt Q14498) | -0.0687 | 0.0112
RBM27_Q9P2N5_279_CRDYDER (UniProt Q9P2N5) | -0.0287 | -0.0206
RASGRP2_Q7LDG7_548_DRLSVECR (UniProt Q7LDG7) | -0.162 | -0.156
RANBP9_Q96S59_707_QPPLALAMGQATQCLGLMAR (UniProt Q96S59) | 0.028 | 0.00949
RBM4_Q9BWF3_89_LHVGNISPTCTNK (UniProt Q9BWF3) | 0.0226 | -0.0495
RAN_P62826_120_VCENIPIVLCGNK (UniProt P62826) | -0.0207 | 0.035
RBM22_Q9NW64_27_QNWEDADFPILCQTCLGENPYIR (UniProt Q9NW64) | 0.273 | 0.0434
RBCK1_Q9BYM8_323_NSQEAEVSCPFIDNTYSCSGK (UniProt Q9BYM8) | -0.0569 | 0.0193
RBM14_Q96PK6_90_IFVGNVSAACTSQELR (UniProt Q96PK6) | 0.0687 | -0.0383
RBM6_P78332_957+960_LACLLCR (UniProt P78332) | -0.247 | -0.133
RC3H1_Q5TC82_33_KPISLGCGHTVCK (UniProt Q5TC82) | 0.0877 | -0.0205

Part of the list above, as comma-separated lines:
Target,probe-labelled cysteine peptide fold change (10 µM),probe-labelled cysteine peptide fold change (50 µM)
RANBP9_Q96S59_707_QPPLALAMGQATQCLGLMAR (UniProt Q96S59),0.028,0.00949
RBM4_Q9BWF3_89_LHVGNISPTCTNK (UniProt Q9BWF3),0.0226,-0.0495
RAN_P62826_120_VCENIPIVLCGNK (UniProt P62826),-0.0207,0.035
RBM22_Q9NW64_27_QNWEDADFPILCQTCLGENPYIR (UniProt Q9NW64),0.273,0.0434
RBCK1_Q9BYM8_323_NSQEAEVSCPFIDNTYSCSGK (UniProt Q9BYM8),-0.0569,0.0193
